# Measurements: patent publication US20240294588A1, “C2 Domain Therapeutics and Uses Thereof” (University of Maryland, Baltimore, priority 2021, published 2024)
# Entries after “also recorded” stand apart in the source; their conditions may differ. Like-named read-outs stand apart in the source and are kept apart here.
# Tested on: dysferlin-null A/J myofibers
# Test: Distribution of Venus-tagged constructs (triad junctions vs Z-disks) in transfected myofibers
# Format: cell-based, mouse
# Source text: FIGS. 2A-2E show the DYSF-C2A distribution and partial protection against loss of Ca^2+ transient and development of Ca^2+ waves after OSI. The construct in FIG. 2A was electroporated into Flexor digitorum brevis (FDB) muscles of dysferlin-null A/J mice and imaged 10 d later. […] Distribution of the Venus construct is indicated to the right. Recovery is partial (in the upper region of fiber). FIG. 2D quantitates results from several dozen fibers of each type. […] Higher levels of expression show more consistent recoveries and suppression of waves than lower levels.
# The constructs in FIG. 4A were electroporated and visualized as in FIG. 2. […] Recovery is complete. FIG. 4D quantitates results from several dozen fibers transfected with each construct. […] Note the high level of Ca release and low frequency of waves indicated by the y-intercepts at low transfection levels.
# A Venus-tagged version of the C2 domain of PKCα was expressed in both control (C57Bl/6) (FIG. 12A) and dysferlin-null (A/J) myofibers (FIG. 12B) and the transfected fibers were imaged. […] They help to explain the ability of the chimeric constructs containing Ven-C2-PKCα to potentiate the beneficial effects of the DYSF-C2A domain.
Substance,Distribution of construct in myofibers,Distribution of construct in myofibers (listed as Ven-C2-PKCα)
"DYSF-C2A: C2A domain of dysferlin (AF075575.1, amino acids 1-100) expressed on its own as a Venus fusion protein; SEQ ID NO: 4",accumulation primarily at Z-disks; also recorded: distributed throughout the myoplasm and did not concentrate at TJs,–
"C2 domain of PKCα: isolated C2 domain of PKCα (XP_024306597.1, residues 71-229), tagged with a Venus moiety","concentrates at the level of A-I junctions, probably at TJs; also recorded: concentrated at the level of the A-I junctions of A/J myofibers",partially accesses the triad junctions of some A/J fibers
